# Test results: article doi:10.1101/2022.05.30.494056
# No constants are given. Whether binding was seen depends on the method and setting. For part of these data: Binding seen in cells or lysates may run through a third protein. Some results given as binding are weak or reduced against the parent protein; the word gives no strength. Where a sequence is shown, tags or fusion partners need not be part of it.
# How the values were obtained:
# Settings in all cases: remark: other sources report otherwise
# [1] = molecular target: T1, PE15 (Rv1386) with N-terminal His tag (Mycobacterium tuberculosis H37Rv), P9WIH1; assay: pull-down
# T1 chain: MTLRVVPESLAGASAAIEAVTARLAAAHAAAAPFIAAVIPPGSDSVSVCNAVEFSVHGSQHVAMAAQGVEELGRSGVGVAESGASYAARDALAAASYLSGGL
# [2] = molecular target: T1, PE15 (Rv1386) with N-terminal His tag …; assay: native gel or EMSA
# [3] = molecular target: T2, PPE20 (Rv1387) with C-terminal Strep II tag (Mycobacterium tuberculosis H37Rv), P9WI23; assay: pull-down
# T2 chain: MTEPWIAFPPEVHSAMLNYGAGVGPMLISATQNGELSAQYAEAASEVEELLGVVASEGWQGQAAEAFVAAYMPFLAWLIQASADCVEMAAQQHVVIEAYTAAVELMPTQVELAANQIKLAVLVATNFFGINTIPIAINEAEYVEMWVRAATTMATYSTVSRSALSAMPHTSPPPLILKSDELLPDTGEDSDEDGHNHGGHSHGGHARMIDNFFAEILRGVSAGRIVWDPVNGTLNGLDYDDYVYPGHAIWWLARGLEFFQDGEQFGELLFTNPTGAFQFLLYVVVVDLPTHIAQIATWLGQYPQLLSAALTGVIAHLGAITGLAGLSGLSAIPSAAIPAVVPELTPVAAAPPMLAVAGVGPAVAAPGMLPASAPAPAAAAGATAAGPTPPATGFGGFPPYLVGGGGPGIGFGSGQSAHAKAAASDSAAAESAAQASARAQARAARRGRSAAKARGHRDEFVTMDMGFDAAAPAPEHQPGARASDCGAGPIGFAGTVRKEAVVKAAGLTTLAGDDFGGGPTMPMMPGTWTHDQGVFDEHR
binder,measurement,setting,value
"PPE20 (Rv1387) with C-terminal Strep II tag, P9WI23 1-539 (protein) MTEPWIAFPPEVHSAMLNYGAGVGPMLISATQNGELSAQYAEAASEVEELLGVVASEGWQGQAAEAFVAAYMPFLAWLIQASADCVEMAAQQHVVIEAYTAAVELMPTQVELAANQIKLAVLVATNFFGINTIPIAINEAEYVEMWVRAATTMATYSTVSRSALSAMPHTSPPPLILKSDELLPDTGEDSDEDGHNHGGHSHGGHARMIDNFFAEILRGVSAGRIVWDPVNGTLNGLDYDDYVYPGHAIWWLARGLEFFQDGEQFGELLFTNPTGAFQFLLYVVVVDLPTHIAQIATWLGQYPQLLSAALTGVIAHLGAITGLAGLSGLSAIPSAAIPAVVPELTPVAAAPPMLAVAGVGPAVAAPGMLPASAPAPAAAAGATAAGPTPPATGFGGFPPYLVGGGGPGIGFGSGQSAHAKAAASDSAAAESAAQASARAQARAARRGRSAAKARGHRDEFVTMDMGFDAAAPAPEHQPGARASDCGAGPIGFAGTVRKEAVVKAAGLTTLAGDDFGGGPTMPMMPGTWTHDQGVFDEHR",binding,[1],binds
same,binding,[2],binds
"PE15 (Rv1386) with N-terminal His tag, P9WIH1 1-102 (protein) MTLRVVPESLAGASAAIEAVTARLAAAHAAAAPFIAAVIPPGSDSVSVCNAVEFSVHGSQHVAMAAQGVEELGRSGVGVAESGASYAARDALAAASYLSGGL",binding,[3],binds
